{"source": "the supplement of paper PMC5949888", "note": "± gives the standard deviation of the averaged measurements. Most values lie at the floor of the assay. Slopes are relative: functional sequences can read slightly below zero.", "data": [{"system": "Saccharomyces cerevisiae PS128 hsf1 delta, HSF1(1-493) fusion", "assay": "growth estimate (transactivation domain function in HSF1 fusion, heat-shock survival) (a.u. (slope of normalised read count over time)); higher = stronger growth at 37°C, i.e. more transactivation activity", "details": "library: random library", "experimental": "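Random 60-nt DNA library encoding peptides of up to 20 aa, fused to the C-terminus of yeast HSF1 residues 1-493 (C-terminal TAD deleted) and expressed from the native HSF1 promoter on a CEN plasmid in hsf1-deleted S. cerevisiae PS128. Cells were selected at 37°C on -trp 5-FOA plates for 0, 2, 4, 6 and 8 days and amplicons were sequenced. Growth estimate is the slope of a robust linear fit of total-sum-normalised read counts (normalised to the first time point) over time, using at least 2 replicates. Sequences are classed functional (TAD activity) above a threshold of -0.13, set from stop-codon control sequences.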", "values": [{"substance": "GRNPNGPQSEIPTAPVTGKC", "growth estimate": "< -0.25"}, {"substance": "GRNSPTDRSIRWNELWSVCN", "growth estimate": "< -0.25"}, {"substance": "GRPERSARV", "growth estimate": "< -0.25"}, {"substance": "GRPKPVKLGRGPREFPYWSR", "growth estimate": "< -0.25"}, {"substance": "GRPTNV", "growth estimate": "< -0.25"}, {"substance": "GRQPTNVSLVGINLHASALA", "growth estimate": "< -0.25"}, {"substance": "GRQRRVDISWMRYVKPVLFF", "growth estimate": "< -0.25"}, {"substance": "GRQVGISPCAG", "growth estimate": "< -0.25"}, {"substance": "GRR", "growth estimate": "< -0.25"}, {"substance": "GRRDVVFPPHFRHLIK", "growth estimate": "< -0.25"}, {"substance": "GRREPDSS", "growth estimate": "< -0.25"}, {"substance": "GRRGRNASQRKAMWLQQRAA", "growth estimate": "< -0.25"}, {"substance": "GRRKELILQGTVATMSGSSP", "growth estimate": "< -0.25"}, {"substance": "GRRLEAITIEGDLVNDFYVL", "growth estimate": "< -0.25"}, {"substance": "GRRRLNARVGVQVCLLSSRL", "growth estimate": "< -0.25"}, {"substance": "GRRTRMIVVCADSYTLGAGR", "growth estimate": "< -0.25"}, {"substance": "GRSAAHLTPAQRAG", "growth estimate": "< -0.25"}, {"substance": "GRSCSKAGLKAKLDCGRRDL", "growth estimate": "< -0.25"}, {"substance": "GRSRVGKRTAEKIRNAGAGP", "growth estimate": "< -0.25"}, {"substance": "GRSSSGSTT", "growth estimate": "< -0.25"}, {"substance": "GRSTGVRCHHGTSCSPPSTP", "growth estimate": "< -0.25"}, {"substance": "GRSVLFRSCGE", "growth estimate": "< -0.25"}, {"substance": "GRSVSVFGRLGLHNLVKTSG", "growth estimate": "< -0.25"}, {"substance": "GRTEWRTAPVSLTERSGTQI", "growth estimate": "< -0.25"}, {"substance": "GRTMPEASYRNSSPTYVSSM", "growth estimate": "< -0.25"}, {"substance": "GRTPQRLALVVRVRFWKARV", "growth estimate": -0.231}, {"substance": "GRTPSKLIPATRKGSALH", "growth estimate": "< -0.25"}, {"substance": "GRTVLGLKEVHASVAPFQDH", "growth estimate": "< -0.25"}, {"substance": "GRTWWHGSNIISVSANTLDL", "growth estimate": "< -0.25"}, {"substance": "GRVETTR", "growth estimate": "< -0.25"}, {"substance": "GRVGEVRTVHMS", "growth estimate": "< -0.25"}, {"substance": "GRVP", "growth estimate": "< -0.25"}, {"substance": "GRVRALQGHIGVRLHPYIAN", "growth estimate": "< -0.25"}, {"substance": "GRVVSRHGMSPVGLSWGGKA", "growth estimate": "< -0.25"}, {"substance": "GRVWFVVRWEVLATSWYHRC", "growth estimate": "< -0.25"}, {"substance": "GRVWRIKKARSGGGGVITVY", "growth estimate": "< -0.25"}, {"substance": "GRWEVRGIRRTATCCTVSVL", "growth estimate": "< -0.25"}, {"substance": "GRYIHVRKTR", "growth estimate": "< -0.25"}, {"substance": "GRYRPFGHRQLFPVAC", "growth estimate": "< -0.25"}, {"substance": "GRYVWLLGEANQYRVQTGAT", "growth estimate": "< -0.25"}, {"substance": "GSACGPLEYGLLFRLCRLRP", "growth estimate": "< -0.25"}, {"substance": "GSAFCTRPRLR", "growth estimate": "< -0.25"}, {"substance": "GSAGAFTRKPRS", "growth estimate": "< -0.25"}, {"substance": "GSAICVLDGRMVSSFLSSLA", "growth estimate": "< -0.25"}, {"substance": "GSAIRRSSFKWVSRSSGARG", "growth estimate": "< -0.25"}, {"substance": "GSAVPFLYAHSDKTGKRGVT", "growth estimate": "< -0.25"}, {"substance": "GSC", "growth estimate": "< -0.25"}, {"substance": "GSCISVAQRYGRRSGLTRST", "growth estimate": "< -0.25"}, {"substance": "GSCSLACCTLEMQGRSIIMN", "growth estimate": "< -0.25"}, {"substance": "GSD", "growth estimate": "-0.235 ± 0.026"}, {"substance": "GSDEAN", "growth estimate": "< -0.25"}, {"substance": "GSDLWIQYRIYLPGFGVPSP", "growth estimate": "< -0.25"}, {"substance": "GSDVSLVAPLAGPAIVSCMT", "growth estimate": "< -0.25"}, {"substance": "GSEEV", "growth estimate": "< -0.25"}, {"substance": "GSEIMPASSNGPWLMGVSS", "growth estimate": "< -0.25"}, {"substance": "GSFATSAKRARQQASLNRIL", "growth estimate": "< -0.25"}, {"substance": "GSFLFSVRNRTSFEHLPCPG", "growth estimate": "< -0.25"}, {"substance": "GSFPIRQSSVLDRKALSVHG", "growth estimate": "< -0.25"}, {"substance": "GSFYASLSKGLRGLL", "growth estimate": "< -0.25"}, {"substance": "GSGCPFLHVCVPPHCVTAPT", "growth estimate": "< -0.25"}, {"substance": "GSGEKPMGHPGPTTLRV", "growth estimate": -0.131}, {"substance": "GSGHVNWAE", "growth estimate": "< -0.25"}, {"substance": "GSGLTEPESILFCYKTGSRI", "growth estimate": "< -0.25"}, {"substance": "GSGVL", "growth estimate": "< -0.25"}, {"substance": "GSHTGQMHLALFREVD", "growth estimate": "< -0.25"}, {"substance": "GSIAASVG", "growth estimate": "< -0.25"}, {"substance": "GSIAIRCLTRGSVCQ", "growth estimate": "< -0.25"}, {"substance": "GSIGDSASEARCIQYVIGDV", "growth estimate": "< -0.25"}, {"substance": "GSIKRICREVVCINTLAVQP", "growth estimate": "< -0.25"}, {"substance": "GSILWPYAN", "growth estimate": "< -0.25"}, {"substance": "GSIPRVGEL", "growth estimate": "< -0.25"}, {"substance": "GSIPSC", "growth estimate": "< -0.25"}, {"substance": "GSIRFVGHSGIQHAKQMNGH", "growth estimate": "< -0.25"}, {"substance": "GSIRH", "growth estimate": 0.613}, {"substance": "GSIVSDLLSRPFGGYNVTGT", "growth estimate": "< -0.25"}, {"substance": "GSIYGRRGILCYCSGLIVES", "growth estimate": "< -0.25"}, {"substance": "GSKARGLFSRVTNRTGARFG", "growth estimate": "< -0.25"}, {"substance": "GSKAVGSVSPMIEHVIELAS", "growth estimate": "< -0.25"}, {"substance": "GSKIKPVLSDSGNSPIHGAL", "growth estimate": "< -0.25"}, {"substance": "GSLGDYTLGR", "growth estimate": "< -0.25"}, {"substance": "GSLGTHGLPELCHSLLVPGD", "growth estimate": "< -0.25"}, {"substance": "GSLIP", "growth estimate": "< -0.25"}, {"substance": "GSLTFDMSKYGGRPVGALNP", "growth estimate": "< -0.25"}, {"substance": "GSLVTMARC", "growth estimate": "< -0.25"}, {"substance": "GSNETPSAARGRAAG", "growth estimate": "< -0.25"}, {"substance": "GSNLQSGGLEVVTLRSEVRH", "growth estimate": "< -0.25"}, {"substance": "GSPAA", "growth estimate": "< -0.25"}, {"substance": "GSPGRSTQRLSDRAKATRPT", "growth estimate": "< -0.25"}, {"substance": "GSPLVQIDVGRGVSESP", "growth estimate": "< -0.25"}, {"substance": "GSPPEPES", "growth estimate": "< -0.25"}, {"substance": "GSPQTLKRYGVRIWSLVSSI", "growth estimate": "< -0.25"}, {"substance": "GSQSTERGP", "growth estimate": "< -0.25"}, {"substance": "GSQTVK", "growth estimate": "< -0.25"}, {"substance": "GSRASTRRCVWHRTQQPCTR", "growth estimate": "< -0.25"}]}]}
